Measurements reported in PubChem BioAssay AID1224828 (NIAID, 2016).

Purpose: 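Find genes required for NF-kappaB p65 moving into the nucleus after LPS in mouse macrophages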 (primary screen)
Cells: mouse RAW264.7 G9 macrophage reporter cells (GFP-p65, Tnf promoter-mCherry)
Reagents: siRNA pool against mouse genes, 100 nM
Time to read-out: 2 days siRNA transfection, then 40 min LPS before fixation
Conditions: LPS (Salmonella minnesota R595) at 10 ng/ml
Measurement: 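Microscopy ratio of nuclear to perinuclear-ring GFP-p65 signal, scaled to the plate median; gene score is the average of two replicate robust z-scores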
Direction: p65 translocation robust z-score: higher = more nuclear NF-kappaB p65 after LPS than the plate median; nuclear/cytoplasmic p65 ratio: higher = more nuclear NF-kappaB p65
Hit rule: 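Called active when z exceeds 3.3 or falls under -1.56 (median of Tlr4 controls), giving activity score of at least 50; no calls for control wells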
Meaning of the calls: active = hit (p65 shift raised or lowered); inactive = no clear change
Here is an unselected part of about 17,000 deposited reagents. Of all reagents, 762 (4.5%) were called active. 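Active calls include both raised and lowered p65 entry, mostly lowered; wells with fewer than 50 cells lack a z-score.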 The raw values are shown without normalisation. Reagent sequences are not shown.

After knock-down of Actl7a (GeneID 11470), the screen gave p65 translocation robust z-score -0.62; nuclear/cytoplasmic p65 ratio, rep 1 = 1.56; nuclear/cytoplasmic p65 ratio, rep 2 = 1.49; low cell count flag enough cells to score; inactive.
Knock-down of Aoah (GeneID 27052) came out at: p65 translocation robust z-score 0.15; nuclear/cytoplasmic p65 ratio, rep 1 = 1.67; nuclear/cytoplasmic p65 ratio, rep 2 = 1.61; low cell count flag enough cells to score; inactive.
For Or7h8 (GeneID 258905), the entry reads p65 translocation robust z-score -0.04; nuclear/cytoplasmic p65 ratio, rep 1 = 1.44; nuclear/cytoplasmic p65 ratio, rep 2 = 1.24; low cell count flag enough cells to score; inactive.
For Rab39b (GeneID 67790), the values are p65 translocation robust z-score -0.25; nuclear/cytoplasmic p65 ratio, rep 1 = 1.36; nuclear/cytoplasmic p65 ratio, rep 2 = 1.17; low cell count flag enough cells to score; inactive.
Depletion of Nup153 (GeneID 218210) resulted in: p65 translocation robust z-score -0.82; nuclear/cytoplasmic p65 ratio, rep 1 = 1.32; nuclear/cytoplasmic p65 ratio, rep 2 = 1.32; low cell count flag enough cells to score; inactive.
Against Hip1r (GeneID 29816) the deposit lists p65 translocation robust z-score 2.66; nuclear/cytoplasmic p65 ratio, rep 1 = 0; nuclear/cytoplasmic p65 ratio, rep 2 = 1.94; low cell count flag enough cells to score; inactive.
After knock-down of Dglucy (GeneID 217830), the record shows p65 translocation robust z-score -1.71; nuclear/cytoplasmic p65 ratio, rep 1 = 1.22; nuclear/cytoplasmic p65 ratio, rep 2 = 1.3; low cell count flag enough cells to score; active.
Against Fbp1 (GeneID 14121), the values are p65 translocation robust z-score 1.15; nuclear/cytoplasmic p65 ratio, rep 1 = 1.64; nuclear/cytoplasmic p65 ratio, rep 2 = 1.59; low cell count flag enough cells to score; inactive.
For Zfp280b (GeneID 64453), the values are p65 translocation robust z-score 1.33; nuclear/cytoplasmic p65 ratio, rep 1 = 1.76; nuclear/cytoplasmic p65 ratio, rep 2 = 2.01; low cell count flag enough cells to score; inactive.
After knock-down of Lce1f (GeneID 67828) the results were p65 translocation robust z-score 0.17; nuclear/cytoplasmic p65 ratio, rep 1 = 1.53; nuclear/cytoplasmic p65 ratio, rep 2 = 1.57; low cell count flag enough cells to score; inactive.
For Narf (GeneID 67608) the deposit lists p65 translocation robust z-score -0.3; nuclear/cytoplasmic p65 ratio, rep 1 = 1.27; nuclear/cytoplasmic p65 ratio, rep 2 = 1.2; low cell count flag enough cells to score; inactive.
Against Slc7a13 (GeneID 74087) the deposit lists p65 translocation robust z-score 0.14; nuclear/cytoplasmic p65 ratio, rep 1 = 1.44; nuclear/cytoplasmic p65 ratio, rep 2 = 1.25; low cell count flag enough cells to score; inactive.
With knock-down of Guk1 (GeneID 14923) the results were p65 translocation robust z-score 0.81; nuclear/cytoplasmic p65 ratio, rep 1 = 1.67; nuclear/cytoplasmic p65 ratio, rep 2 = 1.75; low cell count flag enough cells to score; inactive.
With knock-down of Yju2b (GeneID 67736), the record shows p65 translocation robust z-score 0.13; nuclear/cytoplasmic p65 ratio, rep 1 = 1.35; nuclear/cytoplasmic p65 ratio, rep 2 = 1.32; low cell count flag enough cells to score; inactive.
Against Fgfr1op2 (GeneID 67529), the entry reads p65 translocation robust z-score 0.95; nuclear/cytoplasmic p65 ratio, rep 1 = 1.81; nuclear/cytoplasmic p65 ratio, rep 2 = 1.52; low cell count flag enough cells to score; inactive.
Against Aen (GeneID 68048), the entry reads nuclear/cytoplasmic p65 ratio, rep 1 = 1.37; nuclear/cytoplasmic p65 ratio, rep 2 = 1.47; low cell count flag fewer than 50 cells per well; well left out of scoring; inactive.
With knock-down of Msl3l2 (GeneID 73390), the record shows p65 translocation robust z-score 1.52; nuclear/cytoplasmic p65 ratio, rep 1 = 1.59; nuclear/cytoplasmic p65 ratio, rep 2 = 1.47; low cell count flag enough cells to score; inactive.
Lyzl1 (GeneID 67328) gave p65 translocation robust z-score 0.73; nuclear/cytoplasmic p65 ratio, rep 1 = 1.95; nuclear/cytoplasmic p65 ratio, rep 2 = 1.55; low cell count flag enough cells to score; inactive.
After knock-down of Mcrip2 (GeneID 68241), the record shows p65 translocation robust z-score -0.76; nuclear/cytoplasmic p65 ratio, rep 1 = 1.31; nuclear/cytoplasmic p65 ratio, rep 2 = 1.44; low cell count flag enough cells to score; inactive.
Against Cdh10 (GeneID 320873), the entry reads p65 translocation robust z-score 0.93; nuclear/cytoplasmic p65 ratio, rep 1 = 1.77; nuclear/cytoplasmic p65 ratio, rep 2 = 1.73; low cell count flag enough cells to score; inactive.
For Msantd4 (GeneID 78100), the entry reads p65 translocation robust z-score 1.9; nuclear/cytoplasmic p65 ratio, rep 1 = 1.7; nuclear/cytoplasmic p65 ratio, rep 2 = 1.8; low cell count flag enough cells to score; inactive.

Hits (from the list above):
Dglucy (GeneID 217830) — p65 translocation robust z-score: -1.71; nuclear/cytoplasmic p65 ratio, rep 1: 1.22; nuclear/cytoplasmic p65 ratio, rep 2: 1.3; low cell count flag: enough cells to score; outcome: active
